The values below come from PubChem BioAssay AID2685 (National Center for Advancing Translational Sciences (NCATS), 2010).

The list shows a part of the results. Further columns of the screen follow, without active or inactive calls. Most of these compounds were active or inconclusive in the main read-out, so they are no random draw. Words in brackets tell the shape of the fitted curve; partial curves, single points and poor fits give uncertain potencies.

A short description of the experiment: qHTS Assay for Lipid Storage Modulators in Drosophila S3 Cells.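 For cell number change: cells counted by Cell Tracker Red CMTPX staining in the red channel.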 To be noted: BODIPY lipid droplet fluorescence, 18-24 h; for cell number change: measured here: cell count max response, cells fed with added oleic acid. In short, it runs like this:
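Drosophila S3 cells got compounds at several concentrations plus oleic acid (400 uM solution). Laser-scanning cytometry with 488 nm excitation read lipid droplets at 500-530 nm and cells at 575-640 nm. Percent activity was relative to 20 uM Triacsin C.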
On the technique in general: qHTS replaces the single test concentration by a dilution series.

The mark [1] stands for this setting: measured here: lipid fluorescence (Fed channel) AC50, cells fed with added oleic acid.
The mark [2] stands for this setting: measured here: cell number channel AC50, cells fed with added oleic acid.

With `O=C(Nc1ccc(Cl)cc1)N1CCC(c2nc(-c3ccccc3Cl)no2)CC1`, the cell number change was -67.8%. The term AC50 denotes the midpoint of the concentration-response curve, whichever way the signal moves. Low values mean activity at low concentration, high ones activity only at high concentration. With `Nc1ccccc1-c1nnc(SCc2ccccc2Cl)[nH]c1=O`, the cell number change came out at 5.31%. Also, under setting [1], the concentration at half-maximal activity (AC50) was 3.26 µM [rising, partial curve]. `[O-][n+]1c2c(nn1-c1ccccc1)/C(=N/O)CCC2`: the cell number change was -3.15%. Under setting [1], the AC50 is 3.26 µM [falling, single point]. As to `CCc1ccc(C(C(=O)NC2CCCC2)N(Cc2cccnc2)C(=O)c2csnn2)cc1` (stereo not given), the cell number change was -12.4%. Moreover, the AC50 under setting [1] was 29.1 µM [rising, single point]. On to `COc1cc(-c2nnn(CC#N)n2)ccc1OCc1ccccc1`, for which the cell number change is -26.1%. Also, under setting [1], the AC50 is 0.058 µM [rising, full curve, poor fit]. Turning to `COc1ccccc1CNC(=O)COC(=O)c1ccccc1SCC(=O)N1CCCC1`, the cell number change was 17.7%. Further, the AC50 under setting [1] is 1.3 µM [rising, partial curve]. On to `CCCC1=NN2C(=N)/C(=C\c3ccc(OCCOc4ccc(NC(C)=O)cc4)c(OC)c3)C(=O)N=C2S1`, for which the cell number change is -6.94%.

In the case of `Cc1nc2cc(C(F)(F)F)ccc2n1C1CCN(C(=O)N2CCOCC2)CC1`, the cell number change is -15.2%.

As for `Cc1ccc(S(=O)(=O)N(CC(=O)NCc2ccncc2)Cc2ccccc2F)cc1`, the cell number change stood at 12.8%. Also, the AC50 under setting [1] was 6.51 µM [rising, single point]. As to `CC(=O)Nc1ccc(N2C(=O)CC(Sc3nc4ccccc4s3)C2=O)cc1` (stereo not given), the cell number change was -52.8%. For the same compound, the AC50 under setting [2] was 0.206 µM [falling, full curve]. The AC50 under setting [1] was 29.1 µM [falling, single point]. For the compound `CCCCNC(=O)CSc1nc2ccccc2c(=O)n1C1CCCC1`, the cell number change is -15.2%. As for `C/C(=N\Nc1ccc(C)c(Cl)c1)c1ccncc1`, the cell number change came out at 15.7%. Further, the AC50 under setting [1] was 0.731 µM [rising, full curve]. On to `Cc1cc2cc(CCNC(=O)c3cccc([N+](=O)[O-])c3)c(=O)[nH]c2cc1C`, for which the cell number change is 17.3%. Besides, under setting [1], the AC50 is 6.51 µM [rising, single point]. Take `COc1ccc(NC(=O)Nc2ccc3c(c2)OCO3)c(C)c1`: the cell number change was -17.6%. Under setting [1], the AC50 was 0.82 µM [falling, single point]. As for `CN[C@@H]1[C@H](O)[C@H](NC)[C@H]2O[C@@]3(O)C(=O)C[C@@H](C)O[C@H]3O[C@@H]2[C@H]1O`, the cell number change was found to be 18.1%. Further, the AC50 under setting [2] was 0.82 µM [rising, full curve, poor fit].

As to `Cc1nc2ccccc2c(=O)n1NC(=O)c1cccnc1Cl`, the cell number change worked out at 32.3%. For the compound `CCOc1ccc(OCC)c(NS(=O)(=O)c2ccc3c(c2)CCN3C(=O)C2CCC2)c1`, the cell number change was found to be 46.9%. Moreover, the AC50 under setting [2] is 10.3 µM [rising, single point].

Turning to `N#Cc1cc([N+](=O)[O-])ccc1N1CCCC1`, the cell number change was determined as 34.3%. Further, under setting [2], the AC50 was 3.26 µM [rising, full curve, poor fit]. For the same compound, the AC50 under setting [1] is 1.46 µM [rising, partial curve, poor fit]. Consider `CC1CN(c2nc3ccccc3nc2C(C#N)C(=O)NC2CCCCC2)CC(C)O1` (stereo not given), for which the half-maximal activity concentration (AC50) runs as follows: under setting [2], 5.8 µM [rising, single point]; under setting [1], 6.51 µM [rising, single point]. With `O=C(CSc1nnc2c(n1)[nH]c1ccccc12)N1CCCCC1`, the cell number change is -8.97%. Moreover, the AC50 under setting [1] was 5.17 µM [falling, single point]. On to `O=C1CCCC/C1=C\Nc1ccccc1C(=O)O`, for which the cell number change is -22.5%. The concentration at half-maximal activity (AC50) under setting [1] is 1.46 µM [falling, full curve].

In the case of `CN(C)c1cccc(C(=O)OCC(=O)Nc2ccccc2Cl)c1`, the cell number change came out at 56.7%. Regarding `Cc1nnc(SCc2c(Cl)cccc2Cl)s1`, the cell number change amounted to 176%. The half-maximal activity concentration (AC50) under setting [1] is 0.58 µM [rising, single point]. Take `COc1ccc(CCN2C(=O)CC(Cc3ccc(Br)cc3)C2=O)cc1OC` (stereo not given): the cell number change is -2.87%. Moreover, under setting [1], the AC50 was 29.1 µM [rising, single point]. `COc1ccc(/C=C/C(=O)NC(=S)Nc2ccc(S(N)(=O)=O)cc2)cc1OC`: the cell number change came to 14.6%. Also, the concentration at half-maximal activity (AC50) under setting [2] was 0.231 µM [rising, partial curve]. For the compound `CC1(C)CC(NC(=O)C2CCC(=O)N(C3CC3)C2)CC(C)(C)C1` (stereo not given), the cell number change stood at 17.9%. Besides, the half-maximal activity concentration (AC50) under setting [1] was 1.64 µM [falling, partial curve]. For `COc1ccc(OCCCC(=O)NCCc2nc3ccccc3[nH]2)cc1`, the cell number change is -40.8%. For the same compound, the half-maximal activity concentration (AC50) under setting [2] is 2.06 µM [falling, single point]. For the compound `CC(=O)c1ccc(S(=O)(=O)NC2CC(=O)N(c3ccc4c(c3)OCCO4)C2)cc1` (stereo not given), the cell number change was 32.3%. Besides, under setting [2], the AC50 was 23.1 µM [rising, single point].

`COc1c(/C=N/Nc2nc(N3CCCCC3)nc(N3CCCCC3)n2)cccc1[N+](=O)[O-]`: the cell number change amounted to 16%. Besides, the AC50 under setting [1] was 25.9 µM [rising, single point]. For `Cc1ccc2oc(=O)c3cnn(CC(=O)NCCCOC(C)C)c3c2c1`, the cell number change is 1.6%. `Cc1ccc(NC(=O)c2cc(-c3cccs3)on2)cc1`: the cell number change was found to be 36.4%. Further, under setting [2], the concentration at half-maximal activity (AC50) is 25.9 µM [rising, single point]. On to `N#CCCn1c2ccccc2c2nc3ccccc3nc21`, for which the cell number change amounted to 6.97%. In addition, the AC50 under setting [1] was 2.59 µM [rising, partial curve]. Consider `CSc1ccc(/C=C/C(=O)OCC(=O)N2CCc3ccccc32)cc1`, for which the cell number change was -37.8%. Moreover, under setting [2], the AC50 was 2.31 µM [falling, full curve]. `CC(C)(C)OC(=O)N1CCC2(CC1)C(C#N)=C(N)OC1=C2C(=O)CCC1`: the cell number change was -26.7%. On to `CN1C(=O)/C(=C/c2ccco2)SC1=Nc1cccc(C(=O)O)c1`, for which the cell number change is -22.7%. The concentration at half-maximal activity (AC50) under setting [1] is 0.326 µM [falling, full curve]. As to `Cc1ccc(C(C)(O)CS(=O)(=O)Cc2ccccc2)cc1` (stereo not given), the concentration at half-maximal activity (AC50) under setting [1] is 29.1 µM [rising, single point].

With `CC(CC(=O)Nc1ccc(Cl)c(S(=O)(=O)N2CCOCC2)c1)c1ccccc1` (stereo not given), the cell number change came out at 100%. Besides, under setting [2], the AC50 is 7.31 µM [rising, partial curve]. `O=c1cc(-c2ccc(O)cc2)oc2c(C3O[C@H](CO)[C@@H](O)[C@H](O)[C@H]3O)c(O)cc(O)c12` (stereo not given in full): the cell number change was -29.3%. Besides, under setting [1], the AC50 was 7.31 µM [falling, partial curve, poor fit].

As to `COCCN(C)C(=O)CC1C(=O)NCCN1CC(c1ccccc1)c1ccccc1` (stereo not given), the cell number change is -1.78%. Moreover, the AC50 under setting [1] is 0.82 µM [falling, full curve, poor fit].

With `CCN1CCN(c2nnc(-c3ccc(F)cc3)c3ccccc23)CC1`, the cell number change is 6.35%. Regarding `COc1ccc(NS(=O)(=O)c2cc(NC(=O)c3cnccn3)ccc2N2CCCC2)cc1`, the cell number change was determined as 12.3%. In addition, the AC50 under setting [1] is 3.66 µM [rising, single point]. For `O=C(Cn1c2ccccc2c2nc3n(c(=O)c21)CCCS3)Nc1ccccc1`, the cell number change was -18.8%. Turning to `CCn1c(=O)cc(NC2=NCC(C)CN2c2cccc(Cl)c2)n(C)c1=O` (stereo not given), the cell number change was -0.0858%. Moreover, under setting [1], the AC50 is 8.2 µM [rising, partial curve].

For `Cc1ccc2nc(SCC(=O)c3ccccc3)nc(=O)n2c1`, the cell number change was -15.1%. Also, the half-maximal activity concentration (AC50) under setting [2] was 2.59 µM [falling, partial curve]. Also, the AC50 under setting [1] is 2.31 µM [falling, partial curve]. In the case of `O=C(CNS(=O)(=O)c1ccccc1)OCC(=O)c1c[nH]c2ccccc12`, the cell number change was -7.94%. Also, the AC50 under setting [1] is 4.11 µM [rising, full curve, poor fit]. Turning to `O=C(COC(=O)c1cc([N+](=O)[O-])ccc1Cl)NCCc1ccccc1`, the cell number change is -24.5%. For the compound `CC1(C)CN=c2s/c(=C\c3ccc(Cl)cc3)c(=O)n2C1`, the cell number change came to 33.9%. Besides, the AC50 under setting [2] was 23.1 µM [rising, single point]. With `COc1ccc(CN(C)C(=O)C23CC4CC(CC(C4)C2)C3)c(OC)c1`, the cell number change was -22.4%. Under setting [2], the AC50 is 0.82 µM [falling, full curve, poor fit]. Moreover, the AC50 under setting [1] was 35.5 µM [falling, single point]. For the compound `CC1(C)C([N+](=O)[O-])C(c2ccc(O)cc2)NC(c2ccc(O)cc2)C1[N+](=O)[O-]` (stereo not given), the cell number change is 23.4%. The AC50 under setting [1] was 1.84 µM [rising, single point]. For `COc1ccc(N2CCN(C(=O)Cc3ccc(Cl)cc3)CC2)cc1`, the cell number change was -10.6%. Also, the half-maximal activity concentration (AC50) under setting [1] was 29.1 µM [falling, single point]. `COc1ccc(CNC(=O)c2cc(C3CC3)on2)cc1`: under setting [1], the AC50 is 3.66 µM [rising, partial curve, poor fit].

Regarding `Cc1ccc(S(=O)(=O)c2c[nH]c3ccc(C)cc3c2=O)cc1`, the cell number change turned out to be 20.7%. The concentration at half-maximal activity (AC50) under setting [1] was 0.82 µM [rising, full curve, poor fit]. With `O=C(COC(=O)c1cc(S(=O)(=O)N2CCOCC2)ccc1Cl)Nc1ccc2c(c1)OCO2`, the cell number change came to 30.9%. Further, the AC50 under setting [2] was 0.291 µM [rising, partial curve, poor fit]. Moreover, the concentration at half-maximal activity (AC50) under setting [1] is 2.06 µM [rising, partial curve, poor fit]. Consider `CCCOc1ncnc2c1[nH]c1ccc(C)cc12`, for which the cell number change is -45.6%. Also, the half-maximal activity concentration (AC50) under setting [2] was 23.1 µM [falling, single point]. Moreover, the AC50 under setting [1] was 18.4 µM [falling, single point]. As to `Cc1ccc(S(=O)(=O)c2nc(-c3ccc(F)cc3)oc2N2CCOCC2)cc1`, the cell number change is 12.9%. Further, the AC50 under setting [1] is 0.366 µM [rising, partial curve, poor fit]. On to `COc1cccc(C(c2ccccc2)N2C3CCC2CN(S(=O)(=O)c2ccc(F)cc2)CC3)c1` (stereo not given), for which the cell number change was -13.5%.

Regarding `O=C(Nc1ccc(C2=NCCN2)cc1)c1ccc(C(=O)Nc2ccc(C3=NCCN3)cc2)c([N+](=O)[O-])c1`, the cell number change is 1.02%. Moreover, the AC50 under setting [1] is 0.259 µM [rising, full curve].

As to `O=C(NC(=S)N1CCN(c2ccc([N+](=O)[O-])cc2)CC1)c1ccc(F)cc1`, the cell number change is -31.9%. Further, the AC50 under setting [2] is 29.1 µM [falling, single point]. `CCOC(=O)N1CCC(=NNc2nc(C)cc(=O)[nH]2)CC1`: the cell number change was -27%. In addition, the AC50 under setting [1] is 16.4 µM [falling, single point]. Regarding `COc1ccc(NS(=O)(=O)c2cccc(C(=O)NCC3(N4CCCCC4)CCCCC3)c2)cc1`, the cell number change was determined as 4.64%. Besides, the AC50 under setting [1] was 29.1 µM [falling, single point]. As for `O=C(CNS(=O)(=O)c1ccc(Br)s1)N1CCCC1`, the cell number change is -190%. In addition, under setting [2], the AC50 was 29.1 µM [falling, single point]. Moreover, the AC50 under setting [1] was 23.1 µM [falling, single point].
